Experiment [1] concerns the target truncated FGFR1 with domain 3 (D3) missing. Description: co-immunoprecipitation with truncated FGFR1 (D3 missing).
For experiment [2], the target named is truncated FGFR1 with domain 2 (D2) missing. Description: co-immunoprecipitation with truncated FGFR1 (FIG. 9K).
The target in a further experiment is EGFR. The experiment is described as follows: pull-down of purified proteins (Gremlin1 with EGFR), immunoblot.
Experiment [3] addresses truncated FGFR1 with domain 3 (D3) missing. The experiment is described as follows: co-immunoprecipitation, IP: HA of truncated HA-FGFR1, +Gremlin1, immunoblot. (In western blotting, separated proteins are transferred to a membrane and probed.)
The next experiment concerns the target FGFR1-D23. The experiment is described as above.

Results are given in words; binding and its absence hold for the method and conditions named. For some assays here: In cells and extracts the contact can be indirect. For some assays here: Binding can be weak; no strength is given.

B1: Gremlin1 (human gremlin 1, hGREM1) (ligand)
chain: KKKGSQGAIPPPDKAQHNDSEQTQSPQQPGSRNRGRGQGRGTAMPGEEVLESSQEALHVTERKYLKRDWCKTQPLKQTIHEEGCNSRTIINRFCYGQCNSFYIPRHIRKEEGSFQSCSFCKPKKFTTMMVTLNCPELQPPTKKKRVTRVKQCRCISIDLD
modifications: biotin label in the ForteBio assay (site not stated)
With B1, the binding entry in experiment [1] is reported as “binds”; in experiment [2], “no binding”; with EGFR, “no binding”; in experiment [3] it was “binds”; with FGFR1-D23, “binds”.

Values taken from patent publication US20240190950A1, “METHOD OF TREATING DISEASES USING GREMLIN1 ANTAGONISTS” (SHANGHAI JIAO TONG UNIVERSITY, priority 2021, published 2024).
